Measurements reported in PubChem BioAssay AID686938 (Drosophila RNAi Screening Center, 2013)

- Aim: 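Fly genes required for calcium entry once internal stores are emptied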 (primary screen)
- Cells: Drosophila S2R+ cells
- Reagents: long dsRNA against Drosophila genes, about 0.25 µg dsRNA per well, roughly 10,000 cells
- Duration: 5 days of knock-down before the calcium assay
- Conditions: thapsigargin (SERCA pump blocker) to empty calcium stores; entry signal taken 4 min after adding it
- Detection: 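Duplicate raw fluo-4 intensities per well from a plate reader, at rest and four minutes after thapsigargin emptied calcium stores; entry-to-rest ratio filled for only some wells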
- Reading the numbers: calcium entry signal: higher = stronger calcium signal after store depletion; entry to resting ratio: higher = more calcium entry relative to resting level; resting calcium signal: higher = higher resting calcium signal
- Units: calcium entry signal in fluorescence units; resting calcium signal in fluorescence units
- Call rule: 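Called when the plate z-score of the entry-to-rest ratio, mean of duplicates, falls below −3; wells with low overall dye signal (Fmax z below −2) or more than five off-targets excluded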
- Meaning of the calls: active = strongly reduced calcium entry; inactive = no strong reduction
In all, the deposit lists about 23,000 reagents; below is an unselected part of those that have a named target and a result. In the full data, 75 (0.33%) got an active call. 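Raw plate signals without normalisation; calls rest on plate z-scores that were not deposited; ratio present for only 364 wells.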 A plus sign joins genes that one reagent is predicted to hit. Not stated in the record: the dose of the treatment.

| predicted target | amplicon | calcium entry signal, replicate 1 | calcium entry signal, replicate 2 | entry to resting ratio | resting calcium signal, replicate 1 | resting calcium signal, replicate 2 | Outcome |
| --- | --- | --- | --- | --- | --- | --- | --- |
| mTTF (mitochondrial transcription termination factor) | DRSC01909 | 5.03e7 | 3.73e7 | – | 2.21e7 | 1.80e7 | inactive |
| Prosap | DRSC06382 | 3.60e7 | 3.85e7 | – | 1.86e7 | 1.71e7 | inactive |
| Prosap | DRSC07081 | 5.20e7 | 4.03e7 | – | 2.17e7 | 1.99e7 | inactive |
| Dg (Dystroglycan) | DRSC06718 | 3.35e7 | 3.93e7 | – | 1.60e7 | 1.76e7 | inactive |
| Ccdc114 (Coiled-coil domain containing protein 114) | DRSC15025 | 2.48e7 | 5.54e7 | – | 1.31e7 | 7.14e7 | inactive |
| Spn42Db (Serpin 42Db) | DRSC05009 | 2.35e7 | 2.64e7 | – | 1.10e7 | 1.22e7 | inactive |
| Cyp12a5 (Cytochrome P450 12a5) | DRSC16621 | 3.29e7 | 4.37e7 | – | 4.72e7 | 2.02e7 | inactive |
| Cp16 (Chorion protein 16) | DRSC11119 | 3.17e7 | 4.03e7 | – | 1.52e7 | 1.94e7 | inactive |
| CG1409 | DRSC17910 | 3.31e7 | 2.62e7 | – | 1.58e7 | 1.25e7 | inactive |
| CG18336 | DRSC06334 | 2.52e7 | 4.35e7 | – | 1.26e7 | 1.83e7 | inactive |
| CG17078 | DRSC00484 | 4.64e7 | 4.82e7 | – | 2.12e7 | 2.07e7 | inactive |
| ODA-Dnal1 (Outer dynein arm dynein axonemal light chain 1) | DRSC07270 | 3.76e7 | 4.53e7 | – | 1.83e7 | 1.89e7 | inactive |
| CG10512 | DRSC11615 | 3.21e7 | 5.16e7 | – | 1.52e7 | 2.25e7 | inactive |
| CG18545 | DRSC15343 | 3.11e7 | 3.53e7 | – | 1.52e7 | 1.82e7 | inactive |
| CG11168 | DRSC14292 | 4.95e7 | 4.23e7 | – | 2.25e7 | 1.88e7 | inactive |
| mRRF1 (mitochondrial ribosome recycling factor 1) | DRSC10421 | 5.52e7 | 4.79e7 | – | 3.58e7 | 1.88e7 | inactive |
| CG31975 + ovm | DRSC00323 | 3.62e7 | 3.85e7 | – | 2.26e7 | 1.82e7 | inactive |
| CG10919 | DRSC14283 | 4.19e7 | 2.69e7 | – | 2.09e7 | 1.41e7 | inactive |
| CG16762 | DRSC08493 | 3.13e7 | 3.85e7 | – | 1.62e7 | 1.65e7 | inactive |
| CG14805 | DRSC18554 | 4.60e7 | 4.71e7 | 1.9 | 2.45e7 | 2.13e7 | inactive |
| CG11668 | DRSC14341 | 2.73e7 | 3.80e7 | – | 1.53e7 | 5.51e7 | inactive |
| CG42366 | DRSC02760 | 3.82e7 | 5.94e7 | – | 2.01e7 | 2.30e7 | inactive |
| CG42366 | DRSC23297 | 3.49e7 | 3.99e7 | – | 1.65e7 | 1.83e7 | inactive |
| Tm2 (Tropomyosin 2) | DRSC16887 | 3.74e7 | 6.92e7 | – | 1.97e7 | 6.05e7 | inactive |
| vex (vexed) | DRSC19481 | 4.00e7 | 5.49e7 | – | 1.92e7 | 2.67e7 | inactive |
| vex (vexed) | DRSC19651 | 4.05e7 | 6.00e7 | – | 1.95e7 | 2.81e7 | inactive |
| vex (vexed) | DRSC21843 | 1.82e7 | 4.54e7 | – | 1.03e7 | 2.13e7 | inactive |
| CG10035 | DRSC14177 | 3.14e7 | 3.89e7 | – | 1.63e7 | 2.14e7 | inactive |
| Cht2 (Chitinase 2) | DRSC08650 | 4.38e7 | 3.82e7 | – | 1.86e7 | 1.99e7 | inactive |
| CG16825 | DRSC02526 | 2.81e7 | 1.87e7 | – | 1.40e7 | 9.00e6 | inactive |
| Echs1 (Enoyl-CoA hydratase, short chain 1) | DRSC06999 | 3.42e7 | 4.43e7 | – | 1.74e7 | 1.84e7 | inactive |
| CG34327 | DRSC19517 | 3.30e7 | 3.21e7 | – | 1.66e7 | 1.61e7 | inactive |
| CG34327 | DRSC22380 | 3.05e7 | 4.09e7 | – | 1.51e7 | 2.27e7 | inactive |
| CG31251 | DRSC16247 | 2.87e7 | 3.08e7 | – | 3.39e7 | 1.31e7 | inactive |
| CG6324 | DRSC19985 | 3.10e7 | 2.64e7 | – | 1.65e7 | 1.20e7 | inactive |
| CG34236 | DRSC05435 | 5.03e7 | 4.17e7 | – | 2.38e7 | 1.74e7 | inactive |
| HHEX (Hematopoietically expressed homeobox) | DRSC16186 | 3.57e7 | 4.29e7 | – | 5.09e7 | 1.72e7 | inactive |
| snoRNA:Me28S-C3227a + snoRNA:Me18S-A1061 + snoRNA:Me28S-C3227b + 7 more | DRSC05497 | 4.63e7 | 4.18e7 | – | 4.01e7 | 1.91e7 | inactive |
| miple1 (midkine and pleiotrophin 1) | DRSC08722 | 4.21e7 | 5.13e7 | – | 2.20e7 | 2.18e7 | inactive |
| CG18530 | DRSC15341 | 3.19e7 | 3.40e7 | – | 1.57e7 | 1.70e7 | inactive |
| lncRNA:CR32660 (long non-coding RNA:CR32660) | DRSC22965 | 2.42e7 | 2.73e7 | – | 1.24e7 | 1.21e7 | inactive |
| CG15717 | DRSC19684 | 4.15e7 | 3.63e7 | – | 1.97e7 | 1.51e7 | inactive |
| CG7255 | DRSC10790 | 3.76e7 | 4.72e7 | – | 1.81e7 | 3.39e7 | inactive |
| Hr96 (Hormone receptor-like in 96) | DRSC16707 | 4.63e7 | 4.06e7 | – | 1.97e7 | 1.88e7 | inactive |
| CG17191 | DRSC15185 | 3.22e7 | 5.60e7 | – | 1.65e7 | 2.36e7 | inactive |
| tun (tungus) | DRSC05592 | 4.67e7 | 5.09e7 | – | 4.30e7 | 2.19e7 | inactive |
| tun (tungus) | DRSC07127 | 3.22e7 | 2.96e7 | – | 1.58e7 | 1.56e7 | inactive |
| Pkn + Tsen15 | DRSC21969 | 3.53e7 | 3.34e7 | – | 2.02e7 | 1.43e7 | inactive |
| CG42869 + Sfp93F | DRSC13505 | 3.79e7 | 1.88e7 | – | 1.61e7 | 9.73e6 | inactive |
| CG31459 | DRSC13380 | 4.37e7 | 3.46e7 | – | 2.04e7 | 1.60e7 | inactive |
| CG18748 | DRSC15385 | 3.84e7 | 3.08e7 | – | 1.84e7 | 1.44e7 | inactive |
| HP5 (Heterochromatin protein 5) | DRSC19773 | 2.86e7 | 3.13e7 | – | 1.39e7 | 1.40e7 | inactive |
| CG7080 | DRSC16193 | 2.93e7 | 3.27e7 | – | 1.37e7 | 1.49e7 | inactive |
| Son (Son RNA binding protein) | DRSC16400 | 3.15e7 | 3.50e7 | – | 1.44e7 | 1.78e7 | inactive |
| CG13685 | DRSC10043 | 3.49e7 | 5.32e7 | – | 1.70e7 | 2.40e7 | inactive |
| Nup54 (Nucleoporin 54kD) | DRSC07282 | 3.34e7 | 3.71e7 | – | 1.54e7 | 1.74e7 | inactive |
| CG34457 | DRSC06924 | 4.34e7 | 5.71e7 | – | 2.08e7 | 2.76e7 | inactive |
| CG14384 | DRSC14842 | 1.87e7 | 3.79e7 | – | 9.57e6 | 5.41e7 | inactive |
